Measurements: PubChem BioAssay AID1347426 (Functional Genomics Laboratory (NCATS/FGL), 2020)
Among all 31,000 sequences or so, about 1,400 (4.5%) were called active.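 Rule for the calls: active = median seed-adjusted z-score above 1 or below -1; inactive = the rest.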 Some of the results follow.

Test: Novel Modifiers of Survival Motor Neuron (SMN) Protein: Gene Identification via Genome-wide siRNA Screen;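 note: luminescence tracks full-length SMN protein made from the SMN2 reporter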
Details: HEK293T SMN2-luciferase reporter, siRNA knockdown, 72 h; actives lie on both sides
Procedure, shortened: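 Steps: spot 1 pmol siRNA, add Lipofectamine RNAiMax in serum-free DMEM, seed HEK293T SMN2–luciferase reporter cells; incubate 72 h at 37 °C; add ONE-Glo; normalize luminescence to control siRNA, log10, MAD. Candidates: |MAD| > 1.0.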

Sequence | median seed-adjusted z-score
GGAAUAAGGUAAUUGAACATT against MAPK10 | inactive: -0.0114
CUACAUUGAUUACUGUUUATT against ZMYND17 | inactive: -0.00314
GGAAGUAUUUGACUCGGCUTT against RHOV | inactive: -0.326
GAAUCCAAGUGCAUUUCUUTT against TPSG1 | inactive: 0
AGCUGGAGGUCAACAAGUATT against TIMP3 | active: -1.05
GAAUGACUGAGAACUAUUUTT against RBM38 | inactive: 0.0358
GUCAGUUGUUAGAACAUAATT against TRIM24 | inactive: -0.22
GCGGAUUUCUGAGUCCGAATT against HMX3 | inactive: 0.238
GCAACUGCAGGUUAUCUGATT against GRK7 | inactive: 0.288
CCCUCCUACCUGUACAUAATT against MAP3K8 | inactive: -0.533
CCAAGACUGUGACACCAAATT against SCUBE3 | inactive: 0.152
UCAAGAUGCUUCAUUCAUATT against NEUROG1 | inactive: 0.485
GCCGCACAAGUGAACCUCATT against CR1L | inactive: -0.038
GCACCUACUUCAUCUAUAGTT against EDA | inactive: 0.316
GGCGUGACAAGAUCAAUGATT against USP19 | inactive: 0.47
GGAGCACAGGUAAGGCUAATT against HSPA6 | inactive: 0.364
UCAUCUUCAUGACCUACAATT against SLC31A1 | inactive: 0
CUGCGGCUGUUGAACCUGATT against FBXL6 | inactive: -0.182
GUACCAGACUUCACCAUUATT against MPI | inactive: -0.526
GCACAUCUCUGAUGUGGAATT against CARHSP1 | inactive: 0.384
GCUGUUUUAUUGUCCAGCATT against PAAF1 | inactive: -0.422
GGACAAUUCUUUGACCUAATT against PPP3CC | inactive: 0.271
GCCGUGACCUACUUCAUCATT against SLC29A4 | inactive: 0.0192

Sequence | median seed-adjusted z-score
AGUUCUACUUUGACAGGGATT against KCNF1 | inactive: -0.19
GGAGCACGUACAAUACAGATT against FAR2 | inactive: 0.0328
ACCUCUACGUGGUCAGCUATT against DPP9 | inactive: -0.224
GCAUGAUCUUUCGAAGGGATT against CSNK2A2 | inactive: -0.155
GACUCAUCGUGAUGAGAUUTT against SLC7A9 | inactive: 0.194
ACUUCUGCCUGAAUACCCATT against DHFRL1 | inactive: -0.646
GAUAUUUGAUUGAUGUAGATT against DUSP11 | inactive: -0.0184
CCUCCAUGGCGGACAAGAATT against GPR157 | inactive: 0.152
GAGAGUUUAUGGUCAAGGUTT against SGPL1 | inactive: 0.139
GGACCGGUGGAUUCCUUAATT against ZNF775 | inactive: 0.00364
GCUCGGAAAAUUUAAGAUUTT against RGS7 | inactive: 0.415
GGAGCAUGGAGAUUAUACATT against NEK5 | inactive: 0.0403
AGACAGUUUGUACAAUGAATT against ST6GAL1 | inactive: -0.14
CUCCUGCAGUUGAAGGUGATT against FKBP8 | inactive: -0.304
CCUCGUGACUUGAAUCGGATT against REPS2 | inactive: 0.454
GCGUAUGACUUCUUACUCATT against SH3BP4 | inactive: -0.0622
CCGUAGAUGUGAAGUGUAATT against NFXL1 | inactive: 0.118
GGGACUCUCAUUUACCAAATT against ZNF354B | inactive: 0.393
GGCCAUCGCCUACUCAUUGTT against SLC26A1 | inactive: 0.377
GGCUUGUCUUCGUCUCCAATT against MCM9 | inactive: -0.709
CCGUGUACGUGGAUGAUGATT against LPHN1 | active: -1.03
GCAAAUGCCUUUAAACCAATT against ARSD | inactive: -0.447
AGCUGCUGUCUGAACCCAATT against SST | inactive: -0.043

Pulled one by one from the list above (3):
Sequence | median seed-adjusted z-score
GGACCGGUGGAUUCCUUAATT against ZNF775 | inactive: 0.00364
GCGGAUUUCUGAGUCCGAATT against HMX3 | inactive: 0.238
GGCCAUCGCCUACUCAUUGTT against SLC26A1 | inactive: 0.377

The results go on:

Sequence | median seed-adjusted z-score
CGGGAUUUAUCAACUCAAATT against DHODH | inactive: -0.422
GGAGACCAACAAGACCAUUTT against TSNARE1 | inactive: -0.0516
CCAUCUCUACACACAAAAATT against F2RL3 | inactive: 0.133
ACACCAACCCGGGAACAAATT against GSK3A | inactive: 0.248
CAUUGAAGAGAGUAAUUAATT against UGT2B7 | inactive: 0.313
CAACUGCAAUUUUCCCUAUTT against ASCL1 | inactive: 0.132
ACCUCAUCGUCACCGUCAATT against PARD6G | inactive: 0
UGAUCAGCAUUGACAGGUATT against HTR7 | inactive: -0.0111
GUGAGACAGUGGUACGUAATT against TRPM8 | inactive: 0.405
CCUUAGUGCCUGUGACAAATT against S100A7 | inactive: -0.253
GAUCCAUUGAUGUUCGAGATT against RXRB | inactive: 0.147
AGAGAUCUCUACAUCAAAATT against RAP2C | inactive: 0.443
GGUCAUCGCAAGUUUGACATT against TTL | inactive: -0.174
GGAUCCAACUUCAGAUACATT against NUP155 | inactive: 0.141
CAACCACUGUGAGACGAAATT against MFGE8 | inactive: 0.0367
GCAGUCCUCCUAUCCAGUUTT against HSF5 | inactive: 0.369
UGAAGCAUAUGGUAGCUCATT against RBMY1F | inactive: 0.2
AAAUCCGAGUGGAUACAAATT against RDH12 | inactive: -0.0267
CCCGAGACAUUGUCCAGUUTT against CPNE6 | inactive: -0.528
GCAGCCCUGAUGUCCAGUATT against EFS | inactive: -0.299
GAUUUUGUGCGAUCCAUAATT against CBARA1 | inactive: -0.0426
GUCUUUGACUUUGAACUGATT against AKR1B1 | inactive: 0.0107
